This is one part of the list. Most entries show no effect beyond the scatter of the controls.
Compound: Cc1nc(Nc2ncc(C(=O)Nc3c(C)cccc3Cl)s2)cc(N2CCN(CCO)CC2)n1 [dasatinib]
Assay: log2 fold change of tryptic peptide abundance, ligand vs vehicle (limited proteolysis) (log2 ratio); higher = more trypsin-susceptible (destabilized)
Settings: ligand concentration: 5 uM; sample: K562 cleared lysate

Sequences of proteins named here, by UniProt entry; tags and fusion partners are left off. A change or cut given only in a name is not applied to a line headed by its entry.
UniProt Q9BUJ2: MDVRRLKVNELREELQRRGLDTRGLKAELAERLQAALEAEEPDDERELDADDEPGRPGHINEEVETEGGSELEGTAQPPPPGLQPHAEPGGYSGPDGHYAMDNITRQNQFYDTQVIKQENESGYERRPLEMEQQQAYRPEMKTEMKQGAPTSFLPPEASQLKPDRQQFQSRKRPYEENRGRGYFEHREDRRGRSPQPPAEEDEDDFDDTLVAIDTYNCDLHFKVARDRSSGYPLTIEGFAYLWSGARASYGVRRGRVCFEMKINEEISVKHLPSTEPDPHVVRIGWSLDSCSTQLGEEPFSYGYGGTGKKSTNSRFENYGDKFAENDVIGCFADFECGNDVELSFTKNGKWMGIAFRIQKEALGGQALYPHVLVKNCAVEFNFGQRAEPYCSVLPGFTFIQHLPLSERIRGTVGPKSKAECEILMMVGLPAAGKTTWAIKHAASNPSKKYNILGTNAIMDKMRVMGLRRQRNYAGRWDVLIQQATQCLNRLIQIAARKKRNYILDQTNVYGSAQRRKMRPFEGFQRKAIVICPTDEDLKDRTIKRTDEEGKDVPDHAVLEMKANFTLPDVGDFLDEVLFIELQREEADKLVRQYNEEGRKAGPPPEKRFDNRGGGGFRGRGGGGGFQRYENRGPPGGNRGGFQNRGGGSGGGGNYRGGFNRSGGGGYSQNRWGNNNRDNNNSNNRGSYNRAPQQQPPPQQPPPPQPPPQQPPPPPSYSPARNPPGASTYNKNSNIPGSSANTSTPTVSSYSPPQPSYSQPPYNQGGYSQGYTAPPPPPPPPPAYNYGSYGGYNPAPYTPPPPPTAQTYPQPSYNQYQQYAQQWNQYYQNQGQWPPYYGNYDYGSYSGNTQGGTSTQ
UniProt Q9BRH9: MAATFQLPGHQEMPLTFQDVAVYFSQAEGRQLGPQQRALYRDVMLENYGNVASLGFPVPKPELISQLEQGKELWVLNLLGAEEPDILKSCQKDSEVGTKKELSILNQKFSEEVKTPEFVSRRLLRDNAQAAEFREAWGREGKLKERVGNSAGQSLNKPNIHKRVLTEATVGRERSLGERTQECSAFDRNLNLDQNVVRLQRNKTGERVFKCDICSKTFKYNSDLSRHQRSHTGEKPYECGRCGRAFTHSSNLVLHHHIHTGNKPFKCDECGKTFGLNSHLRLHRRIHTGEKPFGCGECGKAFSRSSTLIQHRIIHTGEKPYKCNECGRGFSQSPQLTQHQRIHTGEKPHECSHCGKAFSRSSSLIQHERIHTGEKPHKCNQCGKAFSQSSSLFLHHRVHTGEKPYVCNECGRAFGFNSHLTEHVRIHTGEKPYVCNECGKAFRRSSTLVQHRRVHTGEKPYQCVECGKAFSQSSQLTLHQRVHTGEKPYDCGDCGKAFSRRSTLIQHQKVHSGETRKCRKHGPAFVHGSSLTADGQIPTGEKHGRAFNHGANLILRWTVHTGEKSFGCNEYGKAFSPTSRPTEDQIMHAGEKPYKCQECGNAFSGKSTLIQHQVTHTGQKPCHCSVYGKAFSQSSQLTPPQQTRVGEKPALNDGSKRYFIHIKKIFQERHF
UniProt Q9BRY0: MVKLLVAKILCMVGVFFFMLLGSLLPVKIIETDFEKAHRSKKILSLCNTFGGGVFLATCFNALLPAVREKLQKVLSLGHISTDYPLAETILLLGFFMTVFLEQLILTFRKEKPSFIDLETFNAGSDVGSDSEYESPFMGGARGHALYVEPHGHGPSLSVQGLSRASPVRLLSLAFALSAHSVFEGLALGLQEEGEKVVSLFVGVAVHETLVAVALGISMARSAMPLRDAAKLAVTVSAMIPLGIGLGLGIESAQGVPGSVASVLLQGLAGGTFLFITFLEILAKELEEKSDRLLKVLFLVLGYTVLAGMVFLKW
UniProt Q96SB3: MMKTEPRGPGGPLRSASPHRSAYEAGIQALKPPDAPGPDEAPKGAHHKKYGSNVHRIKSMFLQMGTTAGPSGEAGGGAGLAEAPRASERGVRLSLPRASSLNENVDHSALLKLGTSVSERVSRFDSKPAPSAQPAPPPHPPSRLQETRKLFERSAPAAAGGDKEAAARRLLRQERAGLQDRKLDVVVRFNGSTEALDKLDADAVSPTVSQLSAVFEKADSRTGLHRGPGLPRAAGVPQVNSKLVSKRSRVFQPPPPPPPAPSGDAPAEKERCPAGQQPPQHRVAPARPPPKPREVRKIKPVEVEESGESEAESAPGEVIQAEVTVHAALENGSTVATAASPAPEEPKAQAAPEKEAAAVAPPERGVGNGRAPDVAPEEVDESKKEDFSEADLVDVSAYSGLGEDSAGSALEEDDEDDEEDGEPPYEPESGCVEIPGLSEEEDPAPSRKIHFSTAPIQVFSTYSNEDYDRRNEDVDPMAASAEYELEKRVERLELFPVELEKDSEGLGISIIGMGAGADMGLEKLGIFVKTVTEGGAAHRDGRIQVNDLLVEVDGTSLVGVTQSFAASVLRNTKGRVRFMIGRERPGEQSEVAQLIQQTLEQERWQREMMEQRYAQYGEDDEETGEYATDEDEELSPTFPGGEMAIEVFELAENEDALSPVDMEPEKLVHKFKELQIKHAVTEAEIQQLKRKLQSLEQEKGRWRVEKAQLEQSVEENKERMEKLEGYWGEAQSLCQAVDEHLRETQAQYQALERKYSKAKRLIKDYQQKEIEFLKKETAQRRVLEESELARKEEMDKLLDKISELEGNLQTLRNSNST
UniProt Q9BRR9: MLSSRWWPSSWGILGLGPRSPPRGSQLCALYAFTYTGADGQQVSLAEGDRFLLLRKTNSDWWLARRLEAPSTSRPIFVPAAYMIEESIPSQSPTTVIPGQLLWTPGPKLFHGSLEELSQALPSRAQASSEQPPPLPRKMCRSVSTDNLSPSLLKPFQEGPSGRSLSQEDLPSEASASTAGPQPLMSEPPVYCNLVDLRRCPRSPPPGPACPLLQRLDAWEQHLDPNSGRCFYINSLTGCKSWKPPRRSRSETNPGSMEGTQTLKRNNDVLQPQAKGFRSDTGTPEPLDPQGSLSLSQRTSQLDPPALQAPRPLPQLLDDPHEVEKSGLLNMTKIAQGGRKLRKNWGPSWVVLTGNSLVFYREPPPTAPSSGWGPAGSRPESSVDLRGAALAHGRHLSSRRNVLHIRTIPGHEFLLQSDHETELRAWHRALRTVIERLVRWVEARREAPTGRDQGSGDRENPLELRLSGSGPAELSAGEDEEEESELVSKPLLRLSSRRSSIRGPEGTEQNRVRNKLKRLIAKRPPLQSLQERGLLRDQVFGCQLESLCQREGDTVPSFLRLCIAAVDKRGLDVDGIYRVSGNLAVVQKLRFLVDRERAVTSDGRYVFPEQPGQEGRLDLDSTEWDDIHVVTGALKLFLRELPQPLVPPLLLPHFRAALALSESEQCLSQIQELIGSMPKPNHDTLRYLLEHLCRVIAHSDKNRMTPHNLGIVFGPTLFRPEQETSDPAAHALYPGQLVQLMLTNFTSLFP
UniProt Q9BQ39: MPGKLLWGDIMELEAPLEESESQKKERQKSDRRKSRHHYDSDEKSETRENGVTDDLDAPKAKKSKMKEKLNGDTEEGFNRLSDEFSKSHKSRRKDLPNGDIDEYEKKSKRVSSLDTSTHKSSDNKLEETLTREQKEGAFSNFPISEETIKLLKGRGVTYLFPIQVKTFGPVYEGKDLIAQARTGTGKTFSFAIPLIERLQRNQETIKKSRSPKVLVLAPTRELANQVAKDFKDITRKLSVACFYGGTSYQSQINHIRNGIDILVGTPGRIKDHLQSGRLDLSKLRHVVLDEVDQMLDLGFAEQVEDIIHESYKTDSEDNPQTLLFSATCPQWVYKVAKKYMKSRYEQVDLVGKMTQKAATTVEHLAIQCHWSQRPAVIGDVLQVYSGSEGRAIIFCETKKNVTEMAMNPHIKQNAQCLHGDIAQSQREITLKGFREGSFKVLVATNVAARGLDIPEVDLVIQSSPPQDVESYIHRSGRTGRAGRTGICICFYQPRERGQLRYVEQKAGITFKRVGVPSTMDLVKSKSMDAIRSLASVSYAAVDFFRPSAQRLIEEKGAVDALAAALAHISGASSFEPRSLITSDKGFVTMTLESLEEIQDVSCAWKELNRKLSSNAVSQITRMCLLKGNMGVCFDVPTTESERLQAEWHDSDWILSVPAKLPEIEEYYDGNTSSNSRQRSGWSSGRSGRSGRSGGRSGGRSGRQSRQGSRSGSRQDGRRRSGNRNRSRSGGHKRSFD
UniProt Q9BTY7: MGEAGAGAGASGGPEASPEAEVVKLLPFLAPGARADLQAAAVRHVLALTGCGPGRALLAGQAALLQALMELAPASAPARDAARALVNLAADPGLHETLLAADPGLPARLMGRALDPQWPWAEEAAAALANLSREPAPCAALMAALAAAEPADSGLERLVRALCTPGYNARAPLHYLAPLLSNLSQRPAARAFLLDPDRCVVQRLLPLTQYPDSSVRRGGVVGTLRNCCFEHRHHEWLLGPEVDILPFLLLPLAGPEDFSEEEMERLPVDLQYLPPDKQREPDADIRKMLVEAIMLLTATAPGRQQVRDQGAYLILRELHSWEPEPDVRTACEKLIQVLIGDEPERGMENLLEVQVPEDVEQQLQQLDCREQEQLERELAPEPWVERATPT
UniProt Q9BUG6: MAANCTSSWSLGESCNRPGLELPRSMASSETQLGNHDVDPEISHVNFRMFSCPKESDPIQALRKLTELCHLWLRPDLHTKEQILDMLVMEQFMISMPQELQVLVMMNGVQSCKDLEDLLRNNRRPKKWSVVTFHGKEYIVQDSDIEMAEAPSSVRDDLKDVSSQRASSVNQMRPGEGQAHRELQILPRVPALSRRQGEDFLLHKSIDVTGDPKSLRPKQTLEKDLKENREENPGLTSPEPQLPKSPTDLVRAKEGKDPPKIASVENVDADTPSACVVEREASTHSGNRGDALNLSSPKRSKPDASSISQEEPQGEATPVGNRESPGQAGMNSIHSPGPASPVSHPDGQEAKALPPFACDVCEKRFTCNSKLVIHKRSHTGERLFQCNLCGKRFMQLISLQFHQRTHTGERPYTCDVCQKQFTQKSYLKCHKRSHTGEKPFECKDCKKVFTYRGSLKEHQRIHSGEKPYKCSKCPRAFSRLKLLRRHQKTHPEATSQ
UniProt Q9BPX5, whole entry: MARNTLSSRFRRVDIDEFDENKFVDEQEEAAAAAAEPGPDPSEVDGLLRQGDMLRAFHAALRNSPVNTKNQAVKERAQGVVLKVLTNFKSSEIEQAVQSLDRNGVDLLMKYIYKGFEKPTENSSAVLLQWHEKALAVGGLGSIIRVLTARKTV
UniProt Q99963: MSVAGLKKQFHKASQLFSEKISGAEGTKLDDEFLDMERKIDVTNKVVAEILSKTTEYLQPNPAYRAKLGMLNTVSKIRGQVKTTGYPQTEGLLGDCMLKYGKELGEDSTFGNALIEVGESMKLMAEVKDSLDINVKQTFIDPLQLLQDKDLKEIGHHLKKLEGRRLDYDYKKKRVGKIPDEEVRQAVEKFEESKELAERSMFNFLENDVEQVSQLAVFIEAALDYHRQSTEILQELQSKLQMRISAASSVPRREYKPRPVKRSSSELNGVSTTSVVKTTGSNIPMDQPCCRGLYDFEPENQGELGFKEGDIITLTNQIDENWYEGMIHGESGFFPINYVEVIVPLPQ
UniProt Q99967: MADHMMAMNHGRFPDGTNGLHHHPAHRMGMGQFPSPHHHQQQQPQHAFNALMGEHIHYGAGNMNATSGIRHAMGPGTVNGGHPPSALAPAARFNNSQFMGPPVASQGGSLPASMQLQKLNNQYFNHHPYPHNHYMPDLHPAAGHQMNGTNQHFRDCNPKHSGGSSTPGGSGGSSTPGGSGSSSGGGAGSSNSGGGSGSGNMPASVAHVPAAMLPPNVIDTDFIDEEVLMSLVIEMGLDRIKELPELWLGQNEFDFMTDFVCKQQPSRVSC
UniProt Q9BSC4: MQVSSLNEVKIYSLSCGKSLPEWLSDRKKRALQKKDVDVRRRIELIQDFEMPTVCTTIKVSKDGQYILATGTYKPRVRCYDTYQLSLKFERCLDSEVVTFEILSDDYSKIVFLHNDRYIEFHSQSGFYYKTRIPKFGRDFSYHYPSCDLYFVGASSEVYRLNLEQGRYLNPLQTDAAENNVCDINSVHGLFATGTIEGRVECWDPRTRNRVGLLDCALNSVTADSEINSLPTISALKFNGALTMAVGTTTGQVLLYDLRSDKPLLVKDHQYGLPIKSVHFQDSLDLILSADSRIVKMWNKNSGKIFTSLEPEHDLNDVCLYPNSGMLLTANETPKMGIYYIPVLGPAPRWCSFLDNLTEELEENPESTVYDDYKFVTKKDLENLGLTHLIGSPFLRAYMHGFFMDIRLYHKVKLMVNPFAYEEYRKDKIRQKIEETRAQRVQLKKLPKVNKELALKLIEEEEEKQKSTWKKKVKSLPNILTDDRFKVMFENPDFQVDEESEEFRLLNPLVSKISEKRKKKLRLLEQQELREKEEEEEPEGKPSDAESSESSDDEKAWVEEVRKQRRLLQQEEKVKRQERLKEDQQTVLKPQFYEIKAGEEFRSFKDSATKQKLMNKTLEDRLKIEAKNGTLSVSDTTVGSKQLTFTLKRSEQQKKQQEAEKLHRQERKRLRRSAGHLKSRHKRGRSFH
UniProt Q9BSY4: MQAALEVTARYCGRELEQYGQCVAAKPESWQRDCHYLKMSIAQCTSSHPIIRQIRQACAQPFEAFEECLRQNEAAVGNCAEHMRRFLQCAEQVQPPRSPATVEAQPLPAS

Target: UniProt Q99766 (peptide sequence: AASEWLLR, peptide start residue: 65)
- log2 fold change: -0.0275

Target: TTC1 (peptide sequence: AIQLNPSYIR, peptide start residue: 181) (UniProt Q99614)
- log2 fold change: -0.295

Target: NIPSNAP1 (peptide sequence: NNKEYLEFRR, peptide start residue: 144) (UniProt Q9BPW8)
- log2 fold change: 0.649

Target: COQ7 (peptide sequence: TSVGPVIQK, peptide start residue: 77) (UniProt Q99807)
- log2 fold change: -0.103

Target: TRIM56 (peptide sequence: VEKEALAR, peptide start residue: 236) (UniProt Q9BRZ2)
- log2 fold change: -0.5

Target: MYD88 (peptide sequence: LLDAWQGRPGASVGR, peptide start residue: 74) (UniProt Q99836)
- log2 fold change: -0.16

Target: HNRNPUL1 (peptide sequence: SGGGGYSQNR, peptide start residue: 662) (UniProt Q9BUJ2)
- log2 fold change: 0.129

Target: UniProt Q9BRH9 (peptide sequence: TQECSAFDR, peptide start residue: 180)
- log2 fold change: 0.347

Target: SLC39A3 (peptide sequence: GHALYVEPHGHGPSLSVQGLSR, peptide start residue: 143) (UniProt Q9BRY0)
- log2 fold change: 0.00413

Target: HNRNPAB (peptide sequence: FGEVVDCTIK, peptide start residue: 92) (UniProt Q99729)
- log2 fold change: 0.0804

Target: PSMD1 (peptide sequence: VINDKHDDVMAK, peptide start residue: 716) (UniProt Q99460)
- log2 fold change: -0.434

Target: PPP1R9B (peptide sequence: LLDKISELEGNLQTLR, peptide start residue: 797) (UniProt Q96SB3)
- log2 fold change: -0.286

Target: ARHGAP9 (peptide sequence: VSGNLAVVQK, peptide start residue: 579) (UniProt Q9BRR9)
- log2 fold change: 0.13

Target: DDX50 (peptide sequence: NGIDILVGTPGR, peptide start residue: 307) (UniProt Q9BQ39)
- log2 fold change: 0.126

Target: HAUS7 (peptide sequence: MNELMEK, peptide start residue: 352) (UniProt Q99871)
- log2 fold change: 0.1

Target: ATXN2 (peptide sequence: GISPVVSEHRK, peptide start residue: 782) (UniProt Q99700)
- log2 fold change: -0.123

Target: RBM15 (peptide sequence: LRVDFADTEHR, peptide start residue: 522) (UniProt Q96T37)
- log2 fold change: -0.153

Target: UniProt Q9BTY7 (peptide sequence: APLHYLAPLLSNLSQRPAAR, peptide start residue: 171)
- log2 fold change: -0.163

Target: UniProt Q9BUG6 (peptide sequence: ELQILPR, peptide start residue: 182)
- log2 fold change: -0.359

Target: COPS8 (peptide sequence: KPVAGALDVSFNK, peptide start residue: 166) (UniProt Q99627)
- log2 fold change: 0.0257

Target: WDR77 (peptide sequence: ILLWDTR, peptide start residue: 192) (UniProt Q9BQA1)
- log2 fold change: -0.246

Target: ARPC5L (peptide sequence: GFEKPTENSSAVLLQWHEK, peptide start residue: 115) (UniProt Q9BPX5)
- log2 fold change: -0.274

Target: SH3GL3 (peptide sequence: QAVEKFEESK, peptide start residue: 185) (UniProt Q99963)
- log2 fold change: -0.254

Target: MACROD1 (peptide sequence: AAGPLLTDECR, peptide start residue: 190) (UniProt Q9BQ69)
- log2 fold change: -0.103

Target: CITED2 (peptide sequence: FPDGTNGLHHHPAHR, peptide start residue: 13) (UniProt Q99967)
- log2 fold change: -0.215

Target: NOL10 (peptide sequence: LIEEEEEK, peptide start residue: 457) (UniProt Q9BSC4)
- log2 fold change: 0.197

Target: CHCHD5 (peptide sequence: MSIAQCTSSHPIIR, peptide start residue: 39) (UniProt Q9BSY4)
- log2 fold change: -0.0909

Target: UniProt Q9BU76 (peptide sequence: AEDQTESSCESHRK, peptide start residue: 171)
- log2 fold change: 0.13

— the supplement of paper PMC12819154, “High-throughput peptide-centric local stability assay extends protein–ligand identification to membrane proteins, tissues and bacteria” (Nature Structural & Molecular Biology, 2025)
